# Experimental data published in the supplement of paper PMC10849652.
# Sequences of proteins named here, by UniProt entry; tags and fusion partners are left off. A change or cut given only in a name is not applied to a line headed by its entry.
# UniProt Q15435: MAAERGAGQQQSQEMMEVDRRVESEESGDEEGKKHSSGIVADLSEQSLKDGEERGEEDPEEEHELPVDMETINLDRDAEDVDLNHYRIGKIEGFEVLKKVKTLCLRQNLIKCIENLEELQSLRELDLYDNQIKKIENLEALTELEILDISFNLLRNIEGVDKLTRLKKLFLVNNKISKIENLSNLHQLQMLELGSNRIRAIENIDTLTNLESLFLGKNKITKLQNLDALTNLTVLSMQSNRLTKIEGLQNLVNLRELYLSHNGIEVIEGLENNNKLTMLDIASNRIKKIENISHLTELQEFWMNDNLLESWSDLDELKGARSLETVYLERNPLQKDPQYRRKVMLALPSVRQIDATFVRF
# UniProt Q5VTL8: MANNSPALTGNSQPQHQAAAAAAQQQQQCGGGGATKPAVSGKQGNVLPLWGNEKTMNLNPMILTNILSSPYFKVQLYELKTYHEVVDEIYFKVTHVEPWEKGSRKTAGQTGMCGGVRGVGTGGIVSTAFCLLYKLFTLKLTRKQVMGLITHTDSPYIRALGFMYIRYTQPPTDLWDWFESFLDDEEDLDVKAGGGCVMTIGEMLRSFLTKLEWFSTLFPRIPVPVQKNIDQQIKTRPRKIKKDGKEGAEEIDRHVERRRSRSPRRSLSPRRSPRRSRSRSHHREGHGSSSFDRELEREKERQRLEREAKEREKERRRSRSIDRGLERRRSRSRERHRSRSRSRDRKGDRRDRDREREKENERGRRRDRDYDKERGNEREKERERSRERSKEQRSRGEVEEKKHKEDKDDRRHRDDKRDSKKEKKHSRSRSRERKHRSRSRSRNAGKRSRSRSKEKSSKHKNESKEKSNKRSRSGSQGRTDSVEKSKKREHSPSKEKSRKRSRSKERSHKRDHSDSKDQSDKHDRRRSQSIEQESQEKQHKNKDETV
# UniProt O60927: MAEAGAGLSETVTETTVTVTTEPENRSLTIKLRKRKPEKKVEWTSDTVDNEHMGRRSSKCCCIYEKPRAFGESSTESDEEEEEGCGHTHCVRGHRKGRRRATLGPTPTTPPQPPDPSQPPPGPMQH
# UniProt Q13362, whole entry, looked up: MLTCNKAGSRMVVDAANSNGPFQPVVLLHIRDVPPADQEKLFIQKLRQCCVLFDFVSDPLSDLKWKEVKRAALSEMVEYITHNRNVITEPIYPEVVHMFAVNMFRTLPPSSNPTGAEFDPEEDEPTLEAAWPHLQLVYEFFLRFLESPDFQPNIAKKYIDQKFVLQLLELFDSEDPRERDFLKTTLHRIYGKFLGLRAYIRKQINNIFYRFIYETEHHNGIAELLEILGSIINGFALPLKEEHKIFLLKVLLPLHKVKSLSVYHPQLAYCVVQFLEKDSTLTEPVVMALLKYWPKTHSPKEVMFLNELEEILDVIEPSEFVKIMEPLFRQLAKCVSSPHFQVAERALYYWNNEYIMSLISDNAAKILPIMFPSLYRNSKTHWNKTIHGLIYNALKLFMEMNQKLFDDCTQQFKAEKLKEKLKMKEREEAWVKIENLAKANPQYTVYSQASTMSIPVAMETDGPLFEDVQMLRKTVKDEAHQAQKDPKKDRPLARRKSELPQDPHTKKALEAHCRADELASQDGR
# UniProt O60828: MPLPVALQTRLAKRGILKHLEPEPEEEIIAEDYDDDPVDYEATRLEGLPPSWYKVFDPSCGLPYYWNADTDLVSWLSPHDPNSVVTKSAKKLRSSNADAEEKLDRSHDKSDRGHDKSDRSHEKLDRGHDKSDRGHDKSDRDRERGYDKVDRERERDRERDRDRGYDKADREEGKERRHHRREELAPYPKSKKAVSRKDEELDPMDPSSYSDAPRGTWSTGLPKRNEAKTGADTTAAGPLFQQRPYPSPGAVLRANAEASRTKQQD
# UniProt Q13131: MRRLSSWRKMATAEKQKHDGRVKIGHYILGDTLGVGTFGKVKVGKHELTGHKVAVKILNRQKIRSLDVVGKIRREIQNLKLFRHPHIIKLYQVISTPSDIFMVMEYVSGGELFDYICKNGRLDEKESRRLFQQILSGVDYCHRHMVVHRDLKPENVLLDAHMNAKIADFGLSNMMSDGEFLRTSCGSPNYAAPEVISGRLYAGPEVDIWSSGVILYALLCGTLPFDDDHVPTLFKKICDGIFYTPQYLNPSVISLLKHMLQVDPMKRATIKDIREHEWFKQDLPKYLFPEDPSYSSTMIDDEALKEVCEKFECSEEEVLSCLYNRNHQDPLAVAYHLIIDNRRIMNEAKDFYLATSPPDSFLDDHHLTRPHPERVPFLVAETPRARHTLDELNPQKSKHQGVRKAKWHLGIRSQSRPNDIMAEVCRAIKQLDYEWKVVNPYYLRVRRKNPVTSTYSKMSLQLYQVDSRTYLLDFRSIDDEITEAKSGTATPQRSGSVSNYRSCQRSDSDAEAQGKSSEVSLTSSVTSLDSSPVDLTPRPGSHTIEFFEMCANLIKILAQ
# UniProt Q5H9R7: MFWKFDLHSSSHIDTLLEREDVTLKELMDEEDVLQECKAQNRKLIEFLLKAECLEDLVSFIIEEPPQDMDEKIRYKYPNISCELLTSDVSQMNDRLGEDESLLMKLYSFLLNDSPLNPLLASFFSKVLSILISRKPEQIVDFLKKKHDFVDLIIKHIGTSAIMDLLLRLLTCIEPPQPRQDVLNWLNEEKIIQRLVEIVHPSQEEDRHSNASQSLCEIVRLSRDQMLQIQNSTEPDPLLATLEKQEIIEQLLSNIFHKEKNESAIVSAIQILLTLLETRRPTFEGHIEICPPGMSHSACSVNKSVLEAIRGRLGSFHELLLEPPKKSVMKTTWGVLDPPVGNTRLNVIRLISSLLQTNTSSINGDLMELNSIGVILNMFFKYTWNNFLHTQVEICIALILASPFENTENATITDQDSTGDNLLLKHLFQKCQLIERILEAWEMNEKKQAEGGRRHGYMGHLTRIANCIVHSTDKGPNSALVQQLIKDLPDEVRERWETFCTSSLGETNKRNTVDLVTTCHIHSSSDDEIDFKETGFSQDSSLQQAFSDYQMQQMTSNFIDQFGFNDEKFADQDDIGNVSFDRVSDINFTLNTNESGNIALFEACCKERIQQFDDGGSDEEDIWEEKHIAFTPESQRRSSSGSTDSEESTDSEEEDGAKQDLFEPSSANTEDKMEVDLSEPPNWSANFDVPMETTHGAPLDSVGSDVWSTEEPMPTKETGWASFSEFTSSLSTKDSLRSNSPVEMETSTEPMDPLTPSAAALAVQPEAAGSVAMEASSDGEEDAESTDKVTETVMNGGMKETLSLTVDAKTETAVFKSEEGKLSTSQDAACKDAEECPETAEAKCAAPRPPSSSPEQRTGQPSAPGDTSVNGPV
# UniProt O75170: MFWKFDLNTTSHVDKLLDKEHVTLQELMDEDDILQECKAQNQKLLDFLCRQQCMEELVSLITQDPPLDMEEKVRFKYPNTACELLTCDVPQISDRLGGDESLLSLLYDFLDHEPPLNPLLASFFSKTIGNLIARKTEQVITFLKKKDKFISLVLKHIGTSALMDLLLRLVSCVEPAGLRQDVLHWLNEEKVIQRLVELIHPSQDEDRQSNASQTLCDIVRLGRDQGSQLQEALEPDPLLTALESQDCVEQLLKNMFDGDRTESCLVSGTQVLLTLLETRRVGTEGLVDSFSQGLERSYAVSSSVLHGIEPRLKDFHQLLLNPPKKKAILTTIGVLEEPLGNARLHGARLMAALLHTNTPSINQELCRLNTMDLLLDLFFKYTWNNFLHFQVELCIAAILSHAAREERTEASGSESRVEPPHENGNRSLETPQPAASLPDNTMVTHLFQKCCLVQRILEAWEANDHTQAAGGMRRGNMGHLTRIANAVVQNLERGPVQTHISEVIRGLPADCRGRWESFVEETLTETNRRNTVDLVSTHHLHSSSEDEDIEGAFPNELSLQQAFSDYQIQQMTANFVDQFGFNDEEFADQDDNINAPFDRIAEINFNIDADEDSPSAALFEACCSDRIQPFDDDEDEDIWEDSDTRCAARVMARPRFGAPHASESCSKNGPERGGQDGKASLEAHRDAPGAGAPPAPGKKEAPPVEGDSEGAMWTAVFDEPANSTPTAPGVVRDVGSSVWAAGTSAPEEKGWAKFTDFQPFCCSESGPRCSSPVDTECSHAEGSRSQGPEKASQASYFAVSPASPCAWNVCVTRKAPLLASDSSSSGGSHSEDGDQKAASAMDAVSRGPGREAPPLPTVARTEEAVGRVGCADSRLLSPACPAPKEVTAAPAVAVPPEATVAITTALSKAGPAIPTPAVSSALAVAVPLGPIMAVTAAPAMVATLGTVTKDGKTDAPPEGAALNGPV
# UniProt P30154, whole entry, looked up: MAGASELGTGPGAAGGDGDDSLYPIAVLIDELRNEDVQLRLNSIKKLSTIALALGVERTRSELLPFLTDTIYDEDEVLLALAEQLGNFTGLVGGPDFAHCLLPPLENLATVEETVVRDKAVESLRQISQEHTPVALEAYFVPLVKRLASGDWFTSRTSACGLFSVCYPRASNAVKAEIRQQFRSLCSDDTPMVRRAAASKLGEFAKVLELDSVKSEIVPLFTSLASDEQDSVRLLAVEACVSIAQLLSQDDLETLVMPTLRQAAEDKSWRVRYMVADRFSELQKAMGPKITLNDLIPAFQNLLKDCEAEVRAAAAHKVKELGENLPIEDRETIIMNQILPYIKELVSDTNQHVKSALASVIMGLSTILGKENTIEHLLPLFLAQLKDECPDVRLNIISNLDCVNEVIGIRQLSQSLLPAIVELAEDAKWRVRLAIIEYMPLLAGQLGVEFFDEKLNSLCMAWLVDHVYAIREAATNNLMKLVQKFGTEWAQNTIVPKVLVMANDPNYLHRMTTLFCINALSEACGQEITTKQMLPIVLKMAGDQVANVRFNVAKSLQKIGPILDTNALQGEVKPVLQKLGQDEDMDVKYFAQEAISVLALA
# UniProt Q8TF05: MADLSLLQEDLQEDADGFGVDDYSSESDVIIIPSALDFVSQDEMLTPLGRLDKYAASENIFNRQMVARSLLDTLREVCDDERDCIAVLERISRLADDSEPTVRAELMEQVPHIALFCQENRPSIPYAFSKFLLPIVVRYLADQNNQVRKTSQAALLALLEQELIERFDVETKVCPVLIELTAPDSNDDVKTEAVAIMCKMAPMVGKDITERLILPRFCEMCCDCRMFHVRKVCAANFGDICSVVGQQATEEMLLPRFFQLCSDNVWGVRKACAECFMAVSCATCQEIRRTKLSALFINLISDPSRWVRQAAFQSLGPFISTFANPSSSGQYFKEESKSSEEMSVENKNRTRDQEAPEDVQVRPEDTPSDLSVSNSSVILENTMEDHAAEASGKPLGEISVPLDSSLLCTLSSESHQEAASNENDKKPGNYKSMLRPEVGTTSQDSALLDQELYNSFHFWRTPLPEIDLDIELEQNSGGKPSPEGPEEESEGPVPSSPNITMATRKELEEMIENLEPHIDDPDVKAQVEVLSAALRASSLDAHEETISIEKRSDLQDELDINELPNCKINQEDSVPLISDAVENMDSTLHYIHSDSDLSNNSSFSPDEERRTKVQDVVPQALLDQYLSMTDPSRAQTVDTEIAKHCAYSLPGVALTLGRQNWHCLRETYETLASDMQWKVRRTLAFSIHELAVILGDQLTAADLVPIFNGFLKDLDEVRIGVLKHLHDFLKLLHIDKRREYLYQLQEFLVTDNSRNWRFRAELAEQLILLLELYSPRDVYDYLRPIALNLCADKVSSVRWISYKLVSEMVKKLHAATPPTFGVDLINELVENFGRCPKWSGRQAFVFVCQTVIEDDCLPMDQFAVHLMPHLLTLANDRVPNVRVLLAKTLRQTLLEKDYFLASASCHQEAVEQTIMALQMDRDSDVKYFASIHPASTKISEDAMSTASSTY
# UniProt P41236: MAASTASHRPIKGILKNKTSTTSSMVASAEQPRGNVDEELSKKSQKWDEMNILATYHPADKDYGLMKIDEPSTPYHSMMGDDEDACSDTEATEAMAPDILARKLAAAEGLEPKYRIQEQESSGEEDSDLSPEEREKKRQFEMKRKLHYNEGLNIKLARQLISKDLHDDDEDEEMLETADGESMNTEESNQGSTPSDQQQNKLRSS
# UniProt K7ELL7: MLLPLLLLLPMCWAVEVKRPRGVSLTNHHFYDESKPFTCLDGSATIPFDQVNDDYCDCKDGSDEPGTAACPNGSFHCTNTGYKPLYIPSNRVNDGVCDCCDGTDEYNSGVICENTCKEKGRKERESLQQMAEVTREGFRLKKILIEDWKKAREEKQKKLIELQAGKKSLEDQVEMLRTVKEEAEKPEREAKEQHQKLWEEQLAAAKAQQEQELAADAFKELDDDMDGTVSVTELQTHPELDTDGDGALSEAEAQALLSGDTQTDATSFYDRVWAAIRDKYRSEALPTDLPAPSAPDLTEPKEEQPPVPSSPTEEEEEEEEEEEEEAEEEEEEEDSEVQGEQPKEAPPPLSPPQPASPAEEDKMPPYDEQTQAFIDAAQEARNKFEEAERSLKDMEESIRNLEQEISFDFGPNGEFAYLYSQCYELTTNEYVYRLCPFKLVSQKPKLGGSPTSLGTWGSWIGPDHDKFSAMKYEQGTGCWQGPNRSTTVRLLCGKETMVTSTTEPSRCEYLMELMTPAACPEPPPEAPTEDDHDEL
# This is one part of the list.
# Legend:
# Assay in all cases: log2 fold change, soluble protein after heating vs DMSO (PISA); higher = thermal stabilisation; K562 cells, 10 uM, 30 min; active = over 0.2 and 3.5 SD of the protein, either way, in both replicates (recomputed)
# [1] = compound: C1=CC=C(C=C1)[C@H](COC2=CC3=C(C=C2)NC(=O)N3)NC(=O)C4=CC=CN(C4=O)CC5=CC(=C(C=C5)F)F
# How it was run: (§1)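 Soluble protein was defined as the supernatant after 21,000xg for 90 min. It came from K562 cells at 2×10^6 cells/mL given 10 μM compound for 30 min, heated in aliquots for 3 min across 48°C-58°C, pooled, and extracted in PBS with 0.5% NP-40 at 4°C, and was quantified by TMTpro 16plex LC-MS/MS with equalised channel sums. Thermal stability against control samples, from duplicates, is reported as log2 fold change.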
# [2] = compound: CC1=C(SC2=C1C(=N[C@H](C3=NN=C(N32)C)CC(=O)N)C4=CC=C(C=C4)Cl)C
# How it was run: as §1
# [3] = compound: CC1=C2C(=CC=C1)N=C(N(C2=O)C3=CC=CC=C3C)CN4C=NC5=C(N=CN=C54)N
# How it was run: as §1
# [4] = compound: Cc1sc2c(c1C)C(c1ccc(Cl)cc1)=N[C@@H](CC(=O)OC(C)(C)C)c1nnc(C)n1-2
# How it was run: as §1
# [5] = compound: c1ccc([C@@H]2C[C@H]2NC2CCNCC2)cc1
# How it was run: as §1
Target,log2 fold change [1],log2 fold change [2],log2 fold change [3],log2 fold change [4],log2 fold change [5]
PPP5C (UniProt P53041),inactive: -0.011,inactive: 0.02,inactive: 0.01,inactive: -0.013,inactive: -0.005
PRPS2 isoform 2 (UniProt P11908),inactive: 0.014,inactive: 0.008,inactive: -0.029,inactive: -0.028,inactive: 0.018
PPP2CB (UniProt P62714),inactive: -0.01,inactive: 0.006,inactive: -0.005,inactive: 0.008,inactive: 0.028
PRPF4B (UniProt Q13523),inactive: 0.118,inactive: -0.098,inactive: 0,inactive: 0.109,inactive: 0.168
PPP1R7 (UniProt Q15435),inactive: -0.017,inactive: 0.066,inactive: 0.017,inactive: -0.042,inactive: -0.038
PRPF38B (UniProt Q5VTL8),inactive: 0.038,inactive: 0.066,inactive: 0.052,inactive: 0.056,inactive: 0.032
PRAME (UniProt P78395),inactive: 0.016,inactive: -0.079,inactive: -0.006,inactive: 0.026,inactive: -0.019
PREP (UniProt P48147),inactive: -0.1,inactive: -0.041,inactive: 0.081,inactive: 0.008,inactive: -0.068
PRKCG (UniProt P05129),inactive: -0.216,inactive: -0.025,inactive: 0.033,inactive: -0.017,inactive: 0.077
PREPL (UniProt Q4J6C6),inactive: -0.025,inactive: 0.009,inactive: 0.017,inactive: -0.012,inactive: 0.003
PPP3R1 (UniProt P63098),inactive: 0.041,inactive: 0.057,inactive: 0.048,inactive: -0.013,inactive: -0.021
PPM1F (UniProt P49593),inactive: -0.038,inactive: 0.058,inactive: 0.045,inactive: 0.017,inactive: -0.054
PRPF8 (UniProt Q6P2Q9),inactive: -0.009,inactive: -0.013,inactive: -0.028,inactive: 0.063,inactive: 0.007
PPP1R11 (UniProt O60927),inactive: -0.018,inactive: -0.066,inactive: -0.082,inactive: 0.06,inactive: 0.142
PPM1G (UniProt O15355),inactive: -0.139,inactive: 0.025,inactive: 0.081,inactive: 0.002,inactive: -0.089
PRPSAP2 (UniProt O60256),inactive: 0.009,inactive: -0.026,inactive: -0.027,inactive: -0.012,inactive: 0
PPP2R5C isoform 4 (UniProt Q13362),inactive: -0.03,inactive: -0.003,inactive: 0.117,inactive: -0.019,inactive: 0.012
PQBP1 (UniProt O60828),inactive: 0.026,inactive: -0.022,inactive: -0.053,inactive: 0.007,inactive: 0.018
PRMT9 (UniProt Q6P2P2),inactive: 0.031,inactive: -0.044,inactive: 0.11,inactive: -0.03,inactive: 0.004
PRKDC (UniProt P78527),inactive: -0.017,inactive: 0.048,inactive: 0.029,inactive: -0.031,inactive: -0.019
PRKAA1 isoform 2 (UniProt Q13131),inactive: 0.001,inactive: 0.085,inactive: 0.024,inactive: 0.004,inactive: 0.019
PPP6R3 isoform 5 (UniProt Q5H9R7),inactive: 0.008,inactive: 0.045,inactive: 0.022,inactive: -0.01,inactive: -0.013
PRMT8 (UniProt Q9NR22),inactive: -0.002,inactive: 0.133,inactive: 0.046,inactive: -0.028,inactive: -0.015
PRKAR1A (UniProt P10644),inactive: 0.213,inactive: -0.019,inactive: 0.119,inactive: 0.041,inactive: -0.008
PPP2R5A (UniProt Q15172),inactive: -0.036,inactive: 0.07,inactive: -0.006,inactive: -0.08,inactive: -0.08
PRDX3 (UniProt P30048),inactive: 0.001,inactive: 0.019,inactive: -0.06,inactive: 0.018,inactive: 0.041

Target,log2 fold change [1],log2 fold change [2],log2 fold change [3],log2 fold change [4],log2 fold change [5]
PPP6R2 isoform 5 (UniProt O75170),inactive: -0.017,inactive: 0.012,inactive: -0.006,inactive: -0.022,inactive: -0.004
PRPF40A (UniProt O75400),inactive: -0.008,inactive: 0.016,inactive: 0.123,inactive: -0.022,inactive: 0.037
PPP3CB isoform 4 (UniProt P16298),inactive: -0.051,inactive: 0.031,inactive: 0.047,inactive: -0.012,inactive: -0.03
PPP2R1B isoform 2 (UniProt P30154),inactive: -0.075,inactive: -0.006,inactive: 0.043,inactive: 0.022,inactive: -0.045
PPT1 (UniProt P50897),inactive: 0.047,inactive: 0.021,inactive: 0,inactive: -0.003,inactive: -0.003
PPP3CA (UniProt Q08209),inactive: -0.032,inactive: 0.009,inactive: -0.105,inactive: -0.049,inactive: -0.027
PPP1R18 (UniProt Q6NYC8),inactive: -0.048,inactive: 0.005,inactive: 0.039,inactive: 0.017,inactive: -0.046
PRKD2 isoform 3 (UniProt Q9BZL6),inactive: -0.051,inactive: 0.238,inactive: -0.057,inactive: 0.064,inactive: 0.028
PRPF18 (UniProt Q99633),inactive: -0.037,inactive: 0.006,inactive: 0.097,inactive: 0.208,inactive: 0.001
PPT2 isoform 3 (UniProt Q9UMR5),inactive: 0.015,inactive: -0.062,inactive: -0.011,inactive: -0.053,inactive: 0.03
PRKAB2 (UniProt O43741),inactive: -0.133,inactive: 0.084,inactive: -0.087,inactive: -0.117,inactive: -0.077
PPP1R35 (UniProt Q8TAP8),inactive: 0.01,inactive: 0.006,inactive: 0.067,inactive: 0.03,active: 0.362
PPM1E (UniProt Q8WY54),inactive: -0.019,inactive: 0.186,inactive: 0.024,inactive: 0.022,inactive: -0.176
PRDX1 (UniProt Q06830),inactive: -0.019,inactive: 0.045,inactive: 0.045,inactive: -0.009,inactive: -0.003
PPP3CC isoform 3 (UniProt P48454),inactive: 0.015,inactive: 0.031,inactive: 0.076,inactive: 0.003,inactive: -0.011
PRKCQ (UniProt Q04759),inactive: -0.064,inactive: 0.069,inactive: 0.104,inactive: 0.033,inactive: 0
PPP4R1 (UniProt Q8TF05),inactive: -0.049,inactive: 0.035,inactive: 0.065,inactive: -0.021,inactive: -0.014
PPP2R1A (UniProt P30153),inactive: 0.001,inactive: 0.052,inactive: 0.024,inactive: -0.025,inactive: -0.016
PPP4C (UniProt P60510),inactive: 0.028,inactive: 0.011,inactive: 0.035,inactive: 0.014,inactive: 0.006
PPP1CB (UniProt P62140),inactive: 0.007,inactive: 0.041,inactive: 0.077,inactive: -0.029,inactive: 0.013
PRPS1 (UniProt P60891),inactive: 0.05,inactive: -0.012,inactive: -0.011,inactive: -0.037,inactive: 0.026
PRKAG1 isoform 3 (UniProt P54619),inactive: -0.008,inactive: 0.067,inactive: 0.019,inactive: -0.011,inactive: -0.017
PPP1R2 (UniProt P41236),inactive: 0.018,inactive: 0.007,inactive: -0.022,inactive: 0.019,inactive: 0.031
PPP2R5C isoform 5 (UniProt Q13362),inactive: -0.039,inactive: 0.001,inactive: 0.084,inactive: -0.067,inactive: -0.029
PRKCSH (UniProt K7ELL7),inactive: 0.095,inactive: -0.014,inactive: -0.09,inactive: 0.007,inactive: -0.043
PRRC1 (UniProt Q96M27),inactive: 0.022,inactive: 0.003,inactive: 0,inactive: 0.024,inactive: 0.018

# Reprinted at random: 2 entries already listed, in no set order.
Target,log2 fold change [1],log2 fold change [2],log2 fold change [3],log2 fold change [4],log2 fold change [5]
PPP1R35 (UniProt Q8TAP8),inactive: 0.01,inactive: 0.006,inactive: 0.067,inactive: 0.03,active: 0.362
PRKD2 isoform 3 (UniProt Q9BZL6),inactive: -0.051,inactive: 0.238,inactive: -0.057,inactive: 0.064,inactive: 0.028
